We go through two substances from article PMC10504565.

Amino acid sequences for entries named in this document (tags omitted). A change or cut given only in a name is not applied to a line headed by its entry.
UniProt P29350: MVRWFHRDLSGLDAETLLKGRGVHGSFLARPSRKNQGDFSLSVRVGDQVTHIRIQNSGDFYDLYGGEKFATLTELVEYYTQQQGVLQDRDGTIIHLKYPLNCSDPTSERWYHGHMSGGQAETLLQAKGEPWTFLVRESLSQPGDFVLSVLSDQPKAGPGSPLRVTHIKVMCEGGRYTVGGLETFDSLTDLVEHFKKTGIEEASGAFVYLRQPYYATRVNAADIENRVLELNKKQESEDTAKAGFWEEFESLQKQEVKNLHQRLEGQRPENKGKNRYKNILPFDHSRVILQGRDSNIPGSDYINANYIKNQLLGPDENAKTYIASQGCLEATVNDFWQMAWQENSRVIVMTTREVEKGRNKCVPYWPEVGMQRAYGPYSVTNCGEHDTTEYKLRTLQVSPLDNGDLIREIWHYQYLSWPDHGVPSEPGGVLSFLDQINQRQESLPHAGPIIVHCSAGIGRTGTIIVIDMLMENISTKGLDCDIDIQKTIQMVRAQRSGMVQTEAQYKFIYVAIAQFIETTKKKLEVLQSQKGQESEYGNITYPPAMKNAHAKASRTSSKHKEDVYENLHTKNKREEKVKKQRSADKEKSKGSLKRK
UniProt P51692: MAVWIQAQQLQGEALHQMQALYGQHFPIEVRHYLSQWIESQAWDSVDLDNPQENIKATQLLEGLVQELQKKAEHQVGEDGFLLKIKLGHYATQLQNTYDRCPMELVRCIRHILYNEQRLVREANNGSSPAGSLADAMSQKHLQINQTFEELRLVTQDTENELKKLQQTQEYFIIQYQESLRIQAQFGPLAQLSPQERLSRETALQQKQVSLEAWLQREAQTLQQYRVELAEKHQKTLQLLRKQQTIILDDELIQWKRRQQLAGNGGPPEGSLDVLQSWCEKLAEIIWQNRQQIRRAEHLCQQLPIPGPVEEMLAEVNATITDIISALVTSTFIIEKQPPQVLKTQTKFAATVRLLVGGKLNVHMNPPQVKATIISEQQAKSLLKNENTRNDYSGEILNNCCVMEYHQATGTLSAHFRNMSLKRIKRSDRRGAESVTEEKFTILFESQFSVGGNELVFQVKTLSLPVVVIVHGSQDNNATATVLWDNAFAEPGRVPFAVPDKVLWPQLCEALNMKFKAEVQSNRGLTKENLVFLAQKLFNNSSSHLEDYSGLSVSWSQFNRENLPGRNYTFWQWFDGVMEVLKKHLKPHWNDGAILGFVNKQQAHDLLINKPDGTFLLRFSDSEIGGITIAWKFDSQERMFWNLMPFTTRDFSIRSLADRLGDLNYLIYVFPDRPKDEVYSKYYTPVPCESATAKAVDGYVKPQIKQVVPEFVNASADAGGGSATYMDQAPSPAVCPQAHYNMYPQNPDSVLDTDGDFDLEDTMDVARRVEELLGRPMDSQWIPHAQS
UniProt P42229: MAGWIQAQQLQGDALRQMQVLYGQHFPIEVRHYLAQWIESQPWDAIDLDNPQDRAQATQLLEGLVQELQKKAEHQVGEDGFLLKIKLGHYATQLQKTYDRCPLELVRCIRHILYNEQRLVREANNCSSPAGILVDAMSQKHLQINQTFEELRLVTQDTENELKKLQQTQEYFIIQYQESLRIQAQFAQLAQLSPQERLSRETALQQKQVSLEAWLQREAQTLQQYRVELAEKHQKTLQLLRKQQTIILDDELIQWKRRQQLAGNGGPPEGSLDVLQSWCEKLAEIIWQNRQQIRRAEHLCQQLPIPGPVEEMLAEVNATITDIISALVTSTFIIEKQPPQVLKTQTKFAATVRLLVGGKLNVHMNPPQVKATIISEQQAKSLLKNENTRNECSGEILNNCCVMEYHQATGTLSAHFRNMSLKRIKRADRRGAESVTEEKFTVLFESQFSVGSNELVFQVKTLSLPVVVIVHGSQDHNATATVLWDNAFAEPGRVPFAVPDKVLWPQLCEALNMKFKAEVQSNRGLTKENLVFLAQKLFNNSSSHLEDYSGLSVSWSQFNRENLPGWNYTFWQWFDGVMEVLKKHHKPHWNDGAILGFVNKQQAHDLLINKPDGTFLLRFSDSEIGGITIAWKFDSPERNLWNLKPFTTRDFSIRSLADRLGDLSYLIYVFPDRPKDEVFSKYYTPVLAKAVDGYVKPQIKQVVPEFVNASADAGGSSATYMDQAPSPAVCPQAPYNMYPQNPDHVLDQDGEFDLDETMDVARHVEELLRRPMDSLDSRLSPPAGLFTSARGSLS

These are yes or no findings as the source states them, for the method shown. In cells and extracts the contact can be indirect. Some binding calls cover weakened binding; strength is not graded here.

Test [1] addresses FLAG3-SHP-1 (WT), transiently expressed in HepG2 cells (UniProt P29350). In words: co-IP; HepG2 cells coexpressing FLAG-tagged STAT5B and FLAG-tagged SHP-1 constructs; immunoprecipitation with a SHP-1-specific antibody.
Test [2] concerns the target FLAG3-SHP-1-C453S, transiently expressed in HepG2 cells (UniProt P29350). Described as above.
In test [3] the target is FLAG3-SHP-1 (WT), transiently expressed in HepG2 cells (UniProt P29350). In words: co-IP; HepG2 cells cotransfected with FLAG3-SHP-1 constructs and Myc3-POLR2J, Myc3-POLR2C or V5-STAT5A, harvested after 24 h; lysis in 20 mM Tris-HCl pH 7.5, 140 mM NaCl, 1% NP-40, 10% glycerol.
Test [4] concerns the target FLAG3-SHP-1-C453S, transiently expressed in HepG2 cells (UniProt P29350). The test is described as above.

With “FLAG-tagged STAT5B, transiently expressed in HepG2 cells (from UniProt P51692 1-787)”, the binding result in test [1] and in test [2] was “binds” in each case.

On to “V5-tagged STAT5A, transiently expressed in HepG2 cells (from UniProt P42229 1-794)”, for which the binding entry in test [3] and in test [4] was “binds” each time.
